In this assay the target is Flag-REST (RE-1 silencing transcription factor), expressed in SHSY-5Y cells (UniProt Q13127). Nature of the assay: co-IP; told only in the discussion, no data shown; cells and constructs not stated.

Sequences of proteins named here, by UniProt entry; tags and fusion partners are left off.
UniProt Q13127: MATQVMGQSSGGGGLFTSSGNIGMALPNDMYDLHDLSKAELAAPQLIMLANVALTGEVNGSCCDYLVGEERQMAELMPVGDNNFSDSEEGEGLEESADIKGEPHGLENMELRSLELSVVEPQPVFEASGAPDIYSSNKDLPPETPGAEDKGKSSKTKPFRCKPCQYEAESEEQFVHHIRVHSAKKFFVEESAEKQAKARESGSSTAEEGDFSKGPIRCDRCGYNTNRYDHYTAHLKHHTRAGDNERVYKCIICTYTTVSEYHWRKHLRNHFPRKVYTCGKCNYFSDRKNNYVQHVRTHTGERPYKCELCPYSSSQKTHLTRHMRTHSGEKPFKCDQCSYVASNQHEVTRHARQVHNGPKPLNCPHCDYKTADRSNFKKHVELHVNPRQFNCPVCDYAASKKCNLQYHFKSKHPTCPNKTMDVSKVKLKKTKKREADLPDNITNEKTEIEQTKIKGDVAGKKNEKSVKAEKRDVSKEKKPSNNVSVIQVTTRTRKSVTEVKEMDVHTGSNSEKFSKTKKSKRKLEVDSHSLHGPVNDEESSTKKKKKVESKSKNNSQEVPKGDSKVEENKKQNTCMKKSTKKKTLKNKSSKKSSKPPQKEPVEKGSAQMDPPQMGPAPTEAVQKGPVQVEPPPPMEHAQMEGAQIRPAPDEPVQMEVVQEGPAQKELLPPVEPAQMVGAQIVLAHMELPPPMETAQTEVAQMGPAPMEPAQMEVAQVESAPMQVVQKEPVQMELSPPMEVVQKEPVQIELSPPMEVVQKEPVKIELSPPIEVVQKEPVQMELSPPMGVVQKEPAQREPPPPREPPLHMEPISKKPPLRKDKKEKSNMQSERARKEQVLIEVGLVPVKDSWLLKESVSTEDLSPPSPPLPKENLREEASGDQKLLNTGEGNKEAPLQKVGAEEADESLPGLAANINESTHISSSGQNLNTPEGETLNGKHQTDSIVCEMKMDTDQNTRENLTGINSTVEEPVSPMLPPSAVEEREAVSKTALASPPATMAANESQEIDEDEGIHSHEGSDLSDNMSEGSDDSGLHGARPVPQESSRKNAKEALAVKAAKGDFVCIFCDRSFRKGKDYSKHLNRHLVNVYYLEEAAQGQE
UniProt Q8N6T7: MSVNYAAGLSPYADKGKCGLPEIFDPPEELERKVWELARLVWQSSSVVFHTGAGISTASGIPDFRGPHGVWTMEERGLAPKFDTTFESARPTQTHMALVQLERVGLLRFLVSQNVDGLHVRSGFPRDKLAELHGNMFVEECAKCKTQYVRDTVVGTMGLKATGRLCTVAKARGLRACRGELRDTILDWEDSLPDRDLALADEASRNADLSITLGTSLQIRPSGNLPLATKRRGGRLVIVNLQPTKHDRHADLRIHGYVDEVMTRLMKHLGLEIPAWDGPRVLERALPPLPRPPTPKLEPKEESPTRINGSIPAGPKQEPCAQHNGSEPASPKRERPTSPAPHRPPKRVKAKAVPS

No constants are given. Whether binding was seen depends on the method and setting. Binding seen in cells or lysates may run through a third protein.

Take “SIRT6 (from UniProt Q8N6T7 1-355) (enzyme)”: the binding entry is “no binding”.
